Test results reported in PMC4333378, “Human PrimPol is a highly error-prone polymerase regulated by single-stranded DNA binding proteins” (Nucleic Acids Research, 2014).

Sequences of proteins named here, by UniProt entry; tags and fusion partners are left off.
UniProt P15927: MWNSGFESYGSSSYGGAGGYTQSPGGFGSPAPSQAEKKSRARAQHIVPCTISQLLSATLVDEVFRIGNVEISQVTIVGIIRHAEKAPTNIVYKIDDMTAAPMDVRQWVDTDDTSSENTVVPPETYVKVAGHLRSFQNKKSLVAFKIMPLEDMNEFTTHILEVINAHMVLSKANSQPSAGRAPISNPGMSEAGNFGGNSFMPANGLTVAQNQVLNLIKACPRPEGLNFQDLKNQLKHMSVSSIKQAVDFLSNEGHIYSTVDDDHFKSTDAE

T1: PrimPol^FlagStrep (Strep-tagged human PrimPol) (human) (UniProt Q96LW4)
T1 sequence: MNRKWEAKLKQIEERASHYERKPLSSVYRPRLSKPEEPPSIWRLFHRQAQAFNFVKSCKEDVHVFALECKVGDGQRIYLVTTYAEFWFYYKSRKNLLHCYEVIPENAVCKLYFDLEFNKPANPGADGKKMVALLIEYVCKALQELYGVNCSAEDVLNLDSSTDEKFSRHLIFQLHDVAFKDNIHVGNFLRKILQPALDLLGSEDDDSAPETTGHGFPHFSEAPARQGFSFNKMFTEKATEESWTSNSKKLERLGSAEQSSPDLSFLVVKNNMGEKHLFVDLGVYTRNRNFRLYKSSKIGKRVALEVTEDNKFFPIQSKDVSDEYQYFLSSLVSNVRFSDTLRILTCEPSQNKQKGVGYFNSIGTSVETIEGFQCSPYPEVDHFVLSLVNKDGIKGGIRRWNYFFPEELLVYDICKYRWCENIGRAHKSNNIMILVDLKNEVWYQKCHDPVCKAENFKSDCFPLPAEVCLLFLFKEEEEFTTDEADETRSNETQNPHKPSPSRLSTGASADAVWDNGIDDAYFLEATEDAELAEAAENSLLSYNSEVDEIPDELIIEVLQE

B1: mitochondrial single-stranded DNA binding protein (mtSSB) (protein, UniProt Q04837 17-148)
chain: ESETTTSLVLERSLNRVHLLGRVGQDPVLRQVEGKNPVTIFSLATNEMWRSGDSEVYQLGDVSQKTTWHRISVFRPGLRDVAYQYVKKGSRIYLEGKIDYGEYMDKNNVRRQATTIIADNIIFLSDQTKEKE

Biological target: T1, PrimPol^FlagStrep (Strep-tagged human PrimPol) (human)
Assay: affinity purification with mass spectrometry; large-scale Strep-tactin affinity purification of Strep-tagged PrimPol from doxycycline-induced against non-induced Flp-In T-REx-293 lysate (150 mM NaCl, 30 mM Tris pH 7.4, 0.5% NP-40), desthiobiotin elution, gel slices, LC-MS/MS

Molecule	binding
RPA32 (replication protein A subunit 2) (from UniProt P15927 1-270)	binds
B1	binds

Results are given in words; binding and its absence hold for the method and conditions named. In cells and extracts the contact can be indirect. These calls come from enrichment with a bait or labelling near it, and not all partners need be listed. Tags and fused reporters may be left off the sequences shown.
